# Test results published in US5538960A, “Hydrazono-5β, 14β-androstane derivatives active on the cardiovascular system, and pharmaceutical compositions containing same” (SIGMA-TAU Industrie Farmaceutiche Riunite S.p.A., priority 1992, dated 1996).
# At least one read-out could not be matched to a standard name with certainty.
# Molecular target: T1, Na^+,K+ -ATPase (Canis lupus familiaris, UniProt P50997)
# T1 construct: Na^+,K+ -ATPase receptor purified according to Jorghensen; from tissue
# Test: inhibition of the activity of the purified Na^+,K+ -ATPase measured as % of hydrolysis of ^32 P-ATP
# Type: biochemical
# From the text: To test the affinity for the receptor site of the Na^+,K+ -ATPase and the agonist or antagonist activity on the enzyme, the following tests were used:
# b) inhibition of the activity of the purified Na^+,K+ -ATPase measured as % of hydrolysis of ^32 P-ATP in presence and in absence of the tested compound (Mall F. et al., Biochem. Pharmacol, 1984, 33, 47)
row,Compound,Inhibitory Activity log IC50
1,"C[C@]12CC[C@H](O)C[C@H]1CC[C@@H]1[C@@H]2CC[C@]2(C)[C@@H](/C=N/NC3=NCC(=O)N3)CC[C@]12O [Comp. I-ad, (E)-17β-(5-Oxo-2-imidazolin-2-yl)hydrazonomethyl-5β-androstane-3β,14β-diol]",4.0
2,"CN(C)/N=C/[C@H]1CC[C@]2(O)[C@@H]3CC[C@@H]4C[C@@H](O)CC[C@]4(C)[C@H]3CC[C@]12C [Comp. I-ai, (E)-17β-Dimethylhydrazonomethyl-5β-androstane-3β,14β-diol]",4.0
3,"C[C@]12CC[C@H](O)C[C@H]1CC[C@@H]1[C@@H]2CC[C@]2(C)[C@@H](/C=N/NC(N)=S)CC[C@]12O [Comp. I-aj, (E)-17β-Thiosemicarbazonomethyl-5β-androstane-3β,14β-diol]",4.0
